Only a part is listed here, and it is no random draw. For some assays here: At the low end of the ranking the order means little. This is one part of the list. For some assays here: The source does not settle which construct or isoform was used.

The target of one assay is T1, ETV4 (UniProt P43268).
T1 sequence: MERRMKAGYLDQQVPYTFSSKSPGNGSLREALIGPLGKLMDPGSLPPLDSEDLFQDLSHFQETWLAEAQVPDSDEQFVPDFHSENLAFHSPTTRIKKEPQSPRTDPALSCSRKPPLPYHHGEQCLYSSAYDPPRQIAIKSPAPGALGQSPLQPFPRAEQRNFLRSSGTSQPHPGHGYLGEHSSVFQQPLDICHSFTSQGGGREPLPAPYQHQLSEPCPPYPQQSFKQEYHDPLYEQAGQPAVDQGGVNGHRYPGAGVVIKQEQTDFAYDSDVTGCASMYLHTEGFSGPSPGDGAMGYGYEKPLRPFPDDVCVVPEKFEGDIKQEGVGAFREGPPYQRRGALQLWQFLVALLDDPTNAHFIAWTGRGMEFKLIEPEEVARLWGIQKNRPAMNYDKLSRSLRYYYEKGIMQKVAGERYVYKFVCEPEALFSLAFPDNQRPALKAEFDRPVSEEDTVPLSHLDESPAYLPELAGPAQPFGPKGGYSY
In words: DAPPL (digital affinity profiling via proximity ligation, sequencing). Particulars: 10 mM Tris-HCl pH 7.5, 50 mM NaCl, 1 mM DTT, 4% glycerol, room temperature, 30 min; GST-TFs on glutathione beads, 16-mer random dsDNA library, 0.1% …; high values mean tight binding; double strand, one strand shown; scale: fold enrichment (6-mer frequency, TF over GST control).
Consider TTTGGG, for which the binding signal was found to be 1.26.
Still for that read-out and setting: to AATGAC belongs 1.41.
On the same count and under the same terms, to ATGCTA belongs 1.26; to ATGCTC, 1.5.
The sequence CGCAAC returned a binding signal of 1.04.
Same read-out and setting: to GCGGAA belongs 1.3; to TCATTA, 1.16.
On to TCCACC, for which the binding signal was found to be 1.24.
ATTTAA showed a binding signal of 1.04.
Sequence ATATAA returned a binding signal of 1.13.
On the same count and under the same terms, to TAACTG belongs 1.27; to CCTTAC, 1.29.
Turning to GCAATC, the binding signal was 0.98.
Still for that read-out and setting: for CTATGG the value was 1.33.
In turn, AAGGGT had a binding signal of 0.991.
On the same count and under the same terms, to TTGCCC belongs 1.36.
The same measure, in the same setting: to GTCTCG belongs 1.17; to ACAAAT, 1.09; to GCTACA, 1.2.
For the sequence GCACTG, the binding signal worked out at 1.1.
The same measure, in the same setting: for ACATGC the value was 1.3; for TTAAAT, 1.12; for GTTGTT, 1.11.
On the same count and under the same terms, to CTTAAG belongs 1.01; to TCCAAG, 1.12; to GGGTTC, 1.02.
Still for that read-out and setting: to ACCCTC belongs 1.12.
Sequence GTCCCG displayed a binding signal of 1.22.
In turn, CCCCTT yielded a binding signal of 1.59.
The sequence ATGGGC had a binding signal of 1.36.
The same measure, in the same setting: for GCTACT the value was 1.37; for TGACTG, 1.07; for CACCTT, 1.23.
The same measure, in the same setting: to CCCGAT belongs 1.23; to CAATTA, 1.11.
On the same count and under the same terms, for CGAACA the value was 1.06.
In the case of TGGTTG, the binding signal amounted to 1.02.
Same read-out and setting: to TGACAT belongs 1.21; to AGTAAT, 1.1; to CTCGGC, 1.44.

For another assay, the target named is T2, ERF (UniProt P50548).
T2 sequence: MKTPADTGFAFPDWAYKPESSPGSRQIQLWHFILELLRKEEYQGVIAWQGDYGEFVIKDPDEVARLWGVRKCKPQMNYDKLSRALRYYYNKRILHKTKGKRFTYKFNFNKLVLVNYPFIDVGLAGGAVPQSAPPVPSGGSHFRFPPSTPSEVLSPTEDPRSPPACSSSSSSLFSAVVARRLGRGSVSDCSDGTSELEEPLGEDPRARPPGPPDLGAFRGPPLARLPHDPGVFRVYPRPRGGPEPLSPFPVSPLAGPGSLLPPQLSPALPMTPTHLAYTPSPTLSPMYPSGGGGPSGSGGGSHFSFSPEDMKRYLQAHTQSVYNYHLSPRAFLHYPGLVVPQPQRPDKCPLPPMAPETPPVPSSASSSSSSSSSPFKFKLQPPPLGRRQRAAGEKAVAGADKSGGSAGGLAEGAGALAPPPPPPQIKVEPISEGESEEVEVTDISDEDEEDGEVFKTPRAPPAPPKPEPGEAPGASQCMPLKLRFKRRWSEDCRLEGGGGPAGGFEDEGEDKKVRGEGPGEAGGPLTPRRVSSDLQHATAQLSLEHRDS
Described as above. Particulars: 10 mM Tris-HCl pH 7.5, 50 mM NaCl, 1 mM DTT, 4% glycerol, room temperature, 30 min; GST-TFs on glutathione beads, 16-mer random dsDNA library, 0.1% …; high values mean tight binding; double strand, one strand shown; scale: fold enrichment (6-mer frequency, TF over GST control).
On to TTTGGG, for which the binding signal worked out at 1.39.
Sequence AATGAC came in with a binding signal of 1.35.
The same measure, in the same setting: to ATGCTA belongs 1.26; to ATGCTC, 1.33; to CGCAAC, 0.977.
On the same count and under the same terms, for GCGGAA the value was 1.19.
Same read-out and setting: to TCATTA belongs 1.19.
The sequence TCCACC returned a binding signal of 1.25.
ATTTAA displayed a binding signal of 1.21.
On the same count and under the same terms, for ATATAA the value was 1.16; for TAACTG, 1.11.
On the same count and under the same terms, for CCTTAC the value was 1.32.
Same read-out and setting: to GCAATC belongs 1.03; to CTATGG, 1.11.
In the case of AAGGGT, the binding signal is 0.998.
Same read-out and setting: to TTGCCC belongs 1.3; to GTCTCG, 1.29.
Turning to ACAAAT, the binding signal was 1.3.
On the same count and under the same terms, to GCTACA belongs 1.2; to GCACTG, 1.04; to ACATGC, 1.37.
Same read-out and setting: for TTAAAT the value was 1.1; for GTTGTT, 1.06.
Still for that read-out and setting: for CTTAAG the value was 1.07; for TCCAAG, 1.03; for GGGTTC, 0.875.
With ACCCTC, the binding signal stood at 1.19.
On the same count and under the same terms, for GTCCCG the value was 1.22.
Take CCCCTT: the binding signal was found to be 1.53.
Take ATGGGC: the binding signal was 1.17.
With GCTACT, the binding signal was 1.52.
Still for that read-out and setting: for TGACTG the value was 1.15; for CACCTT, 1.33; for CCCGAT, 1.22.
Still for that read-out and setting: to CAATTA belongs 1.13.
Still for that read-out and setting: to CGAACA belongs 1.17; to TGGTTG, 1.1.
Turning to TGACAT, the binding signal was found to be 1.21.
On the same count and under the same terms, for AGTAAT the value was 0.998.
Still for that read-out and setting: for CTCGGC the value was 1.34.
